Test results reported in paper PMC4441479.
Results are given in words; binding and its absence hold for the method and conditions named. In cells and extracts the contact can be indirect. These calls come from enrichment with a bait or labelling near it, and not all partners need be listed.

By UniProt entry, the sequences of proteins in these tests, tags left out.
UniProt Q7Z2W4: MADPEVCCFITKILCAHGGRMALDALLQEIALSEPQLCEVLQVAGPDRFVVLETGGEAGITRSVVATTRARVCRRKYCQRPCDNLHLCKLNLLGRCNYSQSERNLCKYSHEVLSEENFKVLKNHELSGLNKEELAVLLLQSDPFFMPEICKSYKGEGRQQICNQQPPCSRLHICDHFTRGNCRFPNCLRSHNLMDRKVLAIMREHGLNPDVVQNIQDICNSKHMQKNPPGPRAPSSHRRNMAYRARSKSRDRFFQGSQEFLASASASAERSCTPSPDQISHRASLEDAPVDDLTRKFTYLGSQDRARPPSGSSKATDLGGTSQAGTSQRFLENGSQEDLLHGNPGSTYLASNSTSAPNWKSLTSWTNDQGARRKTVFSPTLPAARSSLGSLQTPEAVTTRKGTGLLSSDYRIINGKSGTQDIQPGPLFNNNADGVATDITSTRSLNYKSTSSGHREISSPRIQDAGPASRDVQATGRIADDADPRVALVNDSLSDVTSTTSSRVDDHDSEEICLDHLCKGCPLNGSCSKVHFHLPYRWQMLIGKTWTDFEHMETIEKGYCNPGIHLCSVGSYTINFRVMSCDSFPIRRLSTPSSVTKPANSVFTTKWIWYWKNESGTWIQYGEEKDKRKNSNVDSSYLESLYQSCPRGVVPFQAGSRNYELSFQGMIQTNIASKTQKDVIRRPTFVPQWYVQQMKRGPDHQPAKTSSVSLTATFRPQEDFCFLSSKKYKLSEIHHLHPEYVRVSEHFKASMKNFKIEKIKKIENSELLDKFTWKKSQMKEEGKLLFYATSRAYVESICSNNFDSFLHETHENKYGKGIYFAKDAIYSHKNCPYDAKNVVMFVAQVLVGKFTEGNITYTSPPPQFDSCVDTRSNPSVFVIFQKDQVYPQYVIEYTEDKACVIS

B1: Cell cycle associated protein 1 (protein, UniProt Q14444-1 1-709)
chain: MPSATSHSGSGSKSSGPPPPSGSSGSEAAAGAGAAAPASQHPATGTGAVQTEAMKQILGVIDKKLRNLEKKKGKLDDYQERMNKGERLNQDQLDAVSKYQEVTNNLEFAKELQRSFMALSQDIQKTIKKTARREQLMREEAEQKRLKTVLELQYVLDKLGDDEVRTDLKQGLNGVPILSEEELSLLDEFYKLVDPERDMSLRLNEQYEHASIHLWDLLEGKEKPVCGTTYKVLKEIVERVFQSNYFDSTHNHQNGLCEEEEAASAPAVEDQVPEAEPEPAEEYTEQSEVESTEYVNRQFMAETQFTSGEKEQVDEWTVETVEVVNSLQQQPQAASPSVPEPHSLTPVAQADPLVRRQRVQDLMAQMQGPYNFIQDSMLDFENQTLDPAIVSAQPMNPTQNMDMPQLVCPPVHSESRLAQPNQVPVQPEATQVPLVSSTSEGYTASQPLYQPSHATEQRPQKEPIDQIQATISLNTDQTTASSSLPAASQPQVFQAGTSKPLHSSGINVNAAPFQSMQTVFNMNAPVPPVNEPETLKQQNQYQASYNQSFSSQPHQVEQTELQQEQLQTVVGTYHGSPDQSHQVTGNHQQPPQQNTGFPRSNQPYYNSRGVSRGGSRGARGLMNGYRGPANGFRGGYDGYRPSFSNTPNSGYTQSQFSAPRDYSGYQRDGYQQNFKRGSGQSGPRGAPRGRGGPPRPNRGMPQMNTQQVN
B2: FtsJ homolog 3 (E. coli) (protein, UniProt Q8IY81 1-847)
chain: MGKKGKVGKSRRDKFYHLAKETGYRSRSAFKLIQLNRRFQFLQKARALLDLCAAPGGWLQVAAKFMPVSSLIVGVDLVPIKPLPNVVTLQQDITTERCRQALRKELKTWKVDVVLNDGAPNVGASWVHDAYSQAHLTLMALRLACDFLARGGSFITKVFRSRDYQPLLWIFQQLFRRVQATKPQASRHESAEIFVVCQGFLAPDKVDSKFFDPKFAFKEVEVQAKTVTELVTKKKPKAEGYAEGDLTLYHRTSVTDFLRAANPVDFLSKASEIMVDDEELAQHPATTEDIRVCCQDIRVLGRKELRSLLNWRTKLRRYVAKKLKEQAKALDISLSSGEEDEGDEEDSTAGTTKQPSKEEEEEEEEEQLNQTLAEMKAQEVAELKRKKKKLLREQRKQRERVELKMDLPGVSIADEGETGMFSLSTIRGHQLLEEVTQGDMSAADTFLSDLPRDDIYVSDVEDDGDDTSLDSDLDPEELAGVRGHQGLRDQKRMRLTEVQDDKEEEEEENPLLVPLEEKAVLQEEQANLWFSKGSFAGIEDDADEALEISQAQLLFENRRKGRQQQQKQQLPQTPPSCLKTEIMSPLYQDEAPKGTEASSGTEAATGLEGEEKDGISDSDSSTSSEEEESWEPLRGKKRSRGPKSDDDGFEIVPIEDPAKHRILDPEGLALGAVIASSKKAKRDLIDNSFNRYTFNEDEGELPEWFVQEEKQHRIRQLPVGKKEVEHYRKRWREINARPIKKVAEAKARKKRRMLKRLEQTRKKAEAVVNTVDISEREKVAQLRSLYKKAGLGKEKRHVTYVVAKKGVGRKVRRPAGVRGHFKVVDSRMKKDQRAQQRKEQKKKHKRK
B3: Cold shock domain containing E1, RNA-binding (protein, UniProt O75534-3 1-813)
chain: MENVFTVSSDPHPSPAAPPSLSLPLSSSSTSSGTKKQKRTPTYQRSMSFDPNLLHNNGHNGYPNGTSAALRETGVIEKLLTSYGFIQCSERQARLFFHCSQYNGNLQDLKVGDDVEFEVSSDRRTGKPIAVKLVKIKQEILPEERMNGQEVFYLTYTPEDVEGNVQLETGDKINFVIDNNKHTGAVSARNIMLLKKKQARCQGVVCAMKEAFGFIERGDVVKEIFFHYSEFKGDLETLQPGDDVEFTIKDRNGKEVATDVRLLPQGTVIFEDISIEHFEGTVTKVIPKVPSKNQNDPLPGRIKVDFVIPKELPFGDKDTKSKVTLLEGDHVRFNISTDRRDKLERATNIEVLSNTFQFTNEAREMGVIAAMRDGFGFIKCVDRDVRMFFHFSEILDGNQLHIADEVEFTVVPDMLSAQRNHAIRIKKLPKGTVSFHSHSDHRFLGTVEKEATFSNPKTTSPNKGKEKEAEDGIIAYDDCGVKLTIAFQAKDVEGSTSPQIGDKVEFSISDKQRPGQQVATCVRLLGRNSNSKRLLGYVATLKDNFGFIETANHDKEIFFHYSEFSGDVDSLELGDMVEYSLSKGKGNKVSAEKVNKTHSVNGITEEADPTIYSGKVIRPLRSVDPTQTEYQGMIEIVEEGDMKGEVYPFGIVGMANKGDCLQKGESVKFQLCVLGQNAQTMAYNITPLRRATVECVKDQFGFINYEVGDSKKLFFHVKEVQDGIELQAGDEVEFSVILNQRTGKCSACNVWRVCEGPKAVAAPRPDRLVNRLKNITLDDASAPRLMVLRQPRGPDNSMGFGAERKIRQAGVID
B4: Coiled-coil domain containing 86 (protein, UniProt Q9H6F5-1 1-360)
chain: MDTPLRRSRRLGGLRPESPESLTSVSRTRRALVEFESNPEETREPGSPPSVQRAGLGSPERPPKTSPGSPRLQQGAGLESPQGQPEPGAASPQRQQDLHLESPQRQPEYSPESPRCQPKPSEEAPKCSQDQGVLASELAQNKEELTPGAPQHQLPPVPGSPEPYPGQQAPGPEPSQPLLELTPRAPGSPRGQHEPSKPPPAGETVTGGFGAKKRKGSSSQAPASKKLNKEELPVIPKGKPKSGRVWKDRSKKRFSQMLQDKPLRTSWQRKMKERQERKLAKDFARHLEEEKERRRQEKKQRRAENLKRRLENERKAEVVQVIRNPAKLKRAKKKQLRSIEKRDTLALLQKQPPQQPAAKI
B5: Ribosomal RNA processing 1B (protein, UniProt Q14684-1 1-758)
chain: MAPAMQPAEIQFAQRLASSEKGIRDRAVKKLRQYISVKTQRETGGFSQEELLKIWKGLFYCMWVQDEPLLQEELANTIAQLVHAVNNSAAQHLFIQTFWQTMNREWKGIDRLRLDKYYMLIRLVLRQSFEVLKRNGWEESRIKVFLDVLMKEVLCPESQSPNGVRFHFIDIYLDELSKVGGKELLADQNLKFIDPFCKIAAKTKDHTLVQTIARGVFEAIVDQSPFVPEETMEEQKTKVGDGDLSAEEIPENEVSLRRAVSKKKTALGKNHSRKDGLSDERGRDDCGTFEDTGPLLQFDYKAVADRLLEMTSRKNTPHFNRKRLSKLIKKFQDLSEGSSISQLSFAEDISADEDDQILSQGKHKKKGNKLLEKTNLEKEKGSRVFCVEEEDSESSLQKRRRKKKKKHHLQPENPGPGGAAPSLEQNRGREPEASGLKALKARVAEPGAEATSSTGEESGSEHPPAVPMHNKRKRPRKKSPRAHREMLESAVLPPEDMSQSGPSGSHPQGPRGSPTGGAQLLKRKRKLGVVPVNGSGLSTPAWPPLQQEGPPTGPAEGANSHTTLPQRRRLQKKKAGPGSLELCGLPSQKTASLKKRKKMRVMSNLVEHNGVLESEAGQPQALGSSGTCSSLKKQKLRAESDFVKFDTPFLPKPLFFRRAKSSTATHPPGPAVQLNKTPSSSKKVTFGLNRNMTAEFKKTDKSILVSPTGPSRVAFDPEQKPLHGVLKTPTSSPASSPLVAKKPLTTTPRRRPRAMDFF
B6: Heterogeneous nuclear ribonucleoprotein A0 (protein, UniProt Q13151 1-305)
chain: MENSQLCKLFIGGLNVQTSESGLRGHFEAFGTLTDCVVVVNPQTKRSRCFGFVTYSNVEEADAAMAASPHAVDGNTVELKRAVSREDSARPGAHAKVKKLFVGGLKGDVAEGDLIEHFSQFGTVEKAEIIADKQSGKKRGFGFVYFQNHDAADKAAVVKFHPIQGHRVEVKKAVPKEDIYSGGGGGGSRSSRGGRGGRGRGGGRDQNGLSKGGGGGYNSYGGYGGGGGGGYNAYGGGGGGSSYGGSDYGNGFGGFGSYSQHQSSYGPMKSGGGGGGGGSSWGGRSNSGPYRGGYGGGGGYGGSSF
B7: MYB binding protein (P160) 1a (protein, UniProt Q9BQG0-1 1-1328)
chain: MESRDPAQPMSPGEATQSGARPADRYGLLKHSREFLDFFWDIAKPEQETRLAATEKLLEYLRGRPKGSEMKYALKRLITGLGVGRETARPCYSLALAQLLQSFEDLPLCSILQQIQEKYDLHQVKKAMLRPALFANLFGVLALFQSGRLVKDQEALMKSVKLLQALAQYQNHLQEQPRKALVDILSEVSKATLQEILPEVLKADLNIILSSPEQLELFLLAQQKVPSKLKKLVGSVNLFSDENVPRLVNVLKMAASSVKKDRKLPAIALDLLRLALKEDKFPRFWKEVVEQGLLKMQFWPASYLCFRLLGAALPLLTKEQLHLVMQGDVIRHYGEHVCTAKLPKQFKFAPEMDDYVGTFLEGCQDDPERQLAVLVAFSSVTNQGLPVTPTFWRVVRFLSPPALQGYVAWLRAMFLQPDLDSLVDFSTNNQKKAQDSSLHMPERAVFRLRKWIIFRLVSIVDSLHLEMEEALTEQVARFCLFHSFFVTKKPTSQIPETKHPFSFPLENQAREAVSSAFFSLLQTLSTQFKQAPGQTQGGQPWTYHLVQFADLLLNHSHNVTTVTPFTAQQRQAWDRMLQTLKELEAHSAEARAAAFQHLLLLVGIHLLKSPAESCDLLGDIQTCIRKSLGEKPRRSRTKTIDPQEPPWVEVLVEILLALLAQPSHLMRQVARSVFGHICSHLTPRALQLILDVLNPETSEDENDRVVVTDDSDERRLKGAEDKSEEGEDNRSSESEEESEGEESEEEERDGDVDQGFREQLMTVLQAGKALGGEDSENEEELGDEAMMALDQSLASLFAEQKLRIQARRDEKNKLQKEKALRRDFQIRVLDLVEVLVTKQPENALVLELLEPLLSIIRRSLRSSSSKQEQDLLHKTARIFTHHLCRARRYCHDLGERAGALHAQVERLVQQAGRQPDSPTALYHFNASLYLLRVLKGNTAEGCVHETQEKQKAGTDPSHMPTGPQAASCLDLNLVTRVYSTALSSFLTKRNSPLTVPMFLSLFSRHPVLCQSLLPILVQHITGPVRPRHQACLLLQKTLSMREVRSCFEDPEWKQLMGQVLAKVTENLRVLGEAQTKAQHQQALSSLELLNVLFRTCKHEKLTLDLTVLLGVLQGQQQSLQQGAHSTGSSRLHDLYWQAMKTLGVQRPKLEKKDAKEIPSATQSPISKKRKKKGFLPETKKRKKRKSEDGTPAEDGTPAATGGSQPPSMGRKKRNRTKAKVPAQANGTPTTKSPAPGAPTRSPSTPAKSPKLQKKNQKPSQVNGAPGSPTEPAGQKQHQKALPKKGVLGKSPLSALARKKARLSLVIRSPSLLQSGAKKKAQVRKAGKP
B8: DDB1- and CUL4-associated factor 7 (protein, UniProt P61962-1 1-342)
chain: MSLHGKRKEIYKYEAPWTVYAMNWSVRPDKRFRLALGSFVEEYNNKVQLVGLDEESSEFICRNTFDHPYPTTKLMWIPDTKGVYPDLLATSGDYLRVWRVGETETRLECLLNNNKNSDFCAPLTSFDWNEVDPYLLGTSSIDTTCTIWGLETGQVLGRVNLVSGHVKTQLIAHDKEVYDIAFSRAGGGRDMFASVGADGSVRMFDLRHLEHSTIIYEDPQHHPLLRLCWNKQDPNYLATMAMDGMEVVILDVRVPCTPVARLNNHRACVNGIAWAPHSSCHICTAADDHQALIWDIQQMPRAIEDPILAYTAEGEINNVQWASTQPDWIAICYNNCLEILRV

What follows are binders tested against ZAP-L-FL (FLAG-tagged ZAP-L) (human) (UniProt Q7Z2W4) (assay: affinity purification with mass spectrometry; ZAP-L-FL or empty vector transfected in 293T; IP with α-FLAG agarose from whole cell lysates (sonication) in the presence or absence of 30 μg/ml RNase; tandem MS; hits: 3 or more peptides, two replicate IPs, not in vector control).

binding, binds:
B1
B2
B3
B4
B5
B6
B7
B8
